## Results from one PubChem assay

Data taken from PubChem BioAssay AID504749, deposited by NCATS (2011).

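A panel of P. falciparum strains inside erythrocytes is exposed to compounds for three days, then a DNA-binding dye reports the amount of parasite DNA.
Each compound was titrated across a series from about 0.000037 to 29 µM.
The number is the fitted AC50, the concentration giving a half-maximal change in signal; a lower value means higher potency, whether the curve shows a decrease or an increase.
Calls follow the curve class and fit quality: every row here is inconclusive, covering signal-raising curves and weak, poorly fitted, partial or highest-dose-only inhibition curves.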

Values are in nM.
All entries here are filed as inconclusive.
Only part of the assay is shown, chiefly results filed as inconclusive.
A potency from a partial, single-point or poor curve is only a rough figure.

With CCOC(=O)c1c[nH]c2cc(OCC(C)C)c(OCC(C)C)cc2c1=O [CP266] the assay gave Potency 106.9 nM (inhibitor, full curve, poor fit).
With CCOC(=O)c1c[nH]c2cc(OCC(C)C)c(OCC(C)C)cc2c1=O [CP315] the assay gave Potency 3013 nM (inhibitor, partial curve, poor fit).
With CCOC(=O)c1c[nH]c2cc(OCC(C)C)c(OCC(C)C)cc2c1=O [CP262] the assay gave Potency 47.8 nM (inhibitor, full curve, poor fit).
With CCOC(=O)c1c[nH]c2cc(OCC(C)C)c(OCC(C)C)cc2c1=O [CP215] the assay gave Potency 60.1 nM (inhibitor, full curve, poor fit).
With CCOC(=O)c1c[nH]c2cc(OCC(C)C)c(OCC(C)C)cc2c1=O [DIV30] the assay gave Potency 1510 nM (inhibitor, partial curve, poor fit).
With CCOC(=O)c1c[nH]c2cc(OCC(C)C)c(OCC(C)C)cc2c1=O [CP329] the assay gave Potency 60.1 nM (inhibitor, full curve, poor fit).
With CCOC(=O)c1c[nH]c2cc(OCC(C)C)c(OCC(C)C)cc2c1=O [CP297] the assay gave Potency 120 nM (inhibitor, full curve, poor fit).
With CCOC(=O)c1c[nH]c2cc(OCC(C)C)c(OCC(C)C)cc2c1=O [CP203] the assay gave Potency 53.6 nM (inhibitor, full curve, poor fit).
With CCOC(=O)c1c[nH]c2cc(OCC(C)C)c(OCC(C)C)cc2c1=O [CP194] the assay gave Potency 60.1 nM (inhibitor, full curve, poor fit).
With CCOC(=O)c1c[nH]c2cc(OCC(C)C)c(OCC(C)C)cc2c1=O [CP269] the assay gave Potency 60.1 nM (inhibitor, full curve, poor fit).
With C=CC1CN2CCC1CC2C(OC(=O)OCC)c1ccnc2ccc(OC)cc12 (centres undefined) [CP297] the assay gave Potency 11995 nM (inhibitor, single point).
With C=CC1CN2CCC1CC2C(OC(=O)OCC)c1ccnc2ccc(OC)cc12 (centres undefined) [CP268] the assay gave Potency 15101 nM (inhibitor, single point).
With C=CC1CN2CCC1CC2C(OC(=O)OCC)c1ccnc2ccc(OC)cc12 (centres undefined) [CP315] the assay gave Potency 13459 nM (inhibitor, single point).
With C=CC1CN2CCC1CC2C(OC(=O)OCC)c1ccnc2ccc(OC)cc12 (centres undefined) [CP329] the assay gave Potency 13459 nM (inhibitor, single point).
With C=CC1CN2CCC1CC2C(OC(=O)OCC)c1ccnc2ccc(OC)cc12 (centres undefined) [SC27B] the assay gave Potency 11220 nM (inhibitor, single point).
With C=CC1CN2CCC1CC2C(OC(=O)OCC)c1ccnc2ccc(OC)cc12 (centres undefined) [JCK] the assay gave Potency 10000 nM (inhibitor, single point).
With C=CC1CN2CCC1CC2C(OC(=O)OCC)c1ccnc2ccc(OC)cc12 (centres undefined) [C2A] the assay gave Potency 11220 nM (inhibitor, single point).
With C=CC1CN2CCC1CC2C(OC(=O)OCC)c1ccnc2ccc(OC)cc12 (centres undefined) [CP201] the assay gave Potency 15101 nM (inhibitor, single point).
With C=CC1CN2CCC1CC2C(OC(=O)OCC)c1ccnc2ccc(OC)cc12 (centres undefined) [CP266] the assay gave Potency 11995 nM (inhibitor, single point).
With C[C@]12CCC(=O)C=C1[C@@H]1C[C@H]1[C@H]1[C@@H]3[C@@H]4C[C@H]4[C@@]4(CCC(=O)O4)[C@@]3(C)CC[C@@H]12 [3D7] the assay gave Potency 14125 nM (inhibitor, single point).
With C[C@]12CCC(=O)C=C1[C@@H]1C[C@H]1[C@H]1[C@@H]3[C@@H]4C[C@H]4[C@@]4(CCC(=O)O4)[C@@]3(C)CC[C@@H]12 [PAD] the assay gave Potency 17782 nM (inhibitor, single point).
With C[C@]12CCC(=O)C=C1[C@@H]1C[C@H]1[C@H]1[C@@H]3[C@@H]4C[C@H]4[C@@]4(CCC(=O)O4)[C@@]3(C)CC[C@@H]12 [CP194] the assay gave Potency 21331 nM (inhibitor, partial curve, poor fit).
With C[C@]12CCC(=O)C=C1[C@@H]1C[C@H]1[C@H]1[C@@H]3[C@@H]4C[C@H]4[C@@]4(CCC(=O)O4)[C@@]3(C)CC[C@@H]12 [7G8] the assay gave Potency 11220 nM (inhibitor, single point).
With C[C@]12CCC(=O)C=C1[C@@H]1C[C@H]1[C@H]1[C@@H]3[C@@H]4C[C@H]4[C@@]4(CCC(=O)O4)[C@@]3(C)CC[C@@H]12 [DIV14] the assay gave Potency 19011 nM (inhibitor, single point).
With C[C@]12CCC(=O)C=C1[C@@H]1C[C@H]1[C@H]1[C@@H]3[C@@H]4C[C@H]4[C@@]4(CCC(=O)O4)[C@@]3(C)CC[C@@H]12 [CP215] the assay gave Potency 19011 nM (inhibitor, single point).
With C[C@]12CCC(=O)C=C1[C@@H]1C[C@H]1[C@H]1[C@@H]3[C@@H]4C[C@H]4[C@@]4(CCC(=O)O4)[C@@]3(C)CC[C@@H]12 [ICS] the assay gave Potency 11220 nM (inhibitor, single point).
With C[C@]12CCC(=O)C=C1[C@@H]1C[C@H]1[C@H]1[C@@H]3[C@@H]4C[C@H]4[C@@]4(CCC(=O)O4)[C@@]3(C)CC[C@@H]12 [DIV30] the assay gave Potency 11995 nM (inhibitor, single point).
With C[C@]12CCC(=O)C=C1[C@@H]1C[C@H]1[C@H]1[C@@H]3[C@@H]4C[C@H]4[C@@]4(CCC(=O)O4)[C@@]3(C)CC[C@@H]12 [W2] the assay gave Potency 6012 nM (inhibitor, partial curve, poor fit).
With CN(C)CCOc1ccccc1Cc1ccccc1 [ATS189] the assay gave Potency 12589 nM (inhibitor, partial curve).

The last 3 entries again:

Compound,condition,Potency (nM),remark
C[C@]12CCC(=O)C=C1[C@@H]1C[C@H]1[C@H]1[C@@H]3[C@@H]4C[C@H]4[C@@]4(CCC(=O)O4)[C@@]3(C)CC[C@@H]12,DIV30,11995,"inhibitor, single point"
C[C@]12CCC(=O)C=C1[C@@H]1C[C@H]1[C@H]1[C@@H]3[C@@H]4C[C@H]4[C@@]4(CCC(=O)O4)[C@@]3(C)CC[C@@H]12,W2,6012,"inhibitor, partial curve, poor fit"
CN(C)CCOc1ccccc1Cc1ccccc1,ATS189,12589,"inhibitor, partial curve"